Test results from patent US9801908B2, “Treatment for chitin-containing microorganisms” (BENCHMARK ANIMAL HEALTH LIMITED, priority 2013, dated 2017).

Test system: Atlantic salmon eyed eggs

SMILES: OB(O)O [boric acid]
- start of egg hatching relative to day 7 post challenge (BA 0.2, 0.6, 0.8, 1.0 and 1.4 g/L continuous): 1 day later
- start of egg hatching (BA 0.4 and 1.2 g/L continuous (same day as non-treated group)): 7 day post challenge
